Measurements taken from article PMC12670160, “A drug-repurposing screen of FDA- and EMA-approved drugs identifies two NF-κB inhibitors active against eumycetoma” (Journal of Antimicrobial Chemotherapy, 2025).
Counter-ions that a name gives are not always drawn. Like-named read-outs stand apart in the source and are kept apart here. About 130 (2.5%) of roughly 5,300 compounds showed an effect of 50% or more. The list shows a part of the results.

Test system: M. mycetomatis strain mm55
Conditions: primary screen, metabolic activity vs growth control, 96 h, 2 µM, inhibitor

| SMILES | % viability [%] | % viability (Madurella mycetomatis metabolic activity at 2µM (%)) [%] |
| --- | --- | --- |
| CC1=C(/C=C/C(C)=C/C=C/C(C)=C/C(=O)O)C(C)(C)CCC1 [ONC0002164, tretinoin] | 77.04 | – |
| N#CC(c1ccccc1)(c1ccccc1)c1ccccc1Cl [ONC0000177, tram39] | 89.73 | – |
| NC[C@@H]1CC[C@@H](N)[C@@H](O[C@H]2[C@H](O)[C@@H](O[C@H]3O[C@H](CO)[C@@H](O)[C@H](N)[C@H]3O)[C@H](N)C[C@@H]2N)O1 [ONC0002876, dibekacin] | 131.3 | – |
| CCCN(C/C=C/I)C1CCc2ccc(O)cc2C1 (stereo not shown) [ONC0001911, 7hydroxypipat] | 65.65 | – |
| CSCC1CN(/N=C/c2ccc([N+](=O)[O-])o2)C(=O)O1 (stereo not shown) [ONC0001818, nifuratel] | 119 | – |
| COc1ccc2ccc(=O)oc2c1CC=C(C)C [ONC0004744, osthole osthol] | 105.5 | – |
| CC1=C(/C=C/C(C)=C/C=C/C(C)=C/C=C/C=C(C)/C=C/C=C(C)/C=C/C2=C(C)C(=O)[C@@H](O)CC2(C)C)C(C)(C)C[C@H](O)C1=O [ONC0003321, astaxanthin] | 82.08 | – |
| CC(Oc1ccc(Cl)cc1)c1ccnc2ncnn12 (stereo not shown) [ONC0001925, bts72664] | 63.82 | – |
| CCCCNC(=O)[C@@H]1Cc2ccccc2N1C(=O)[C@@H](N)CC [ONC0001604, butabindide] | 81.41 | – |
| CNS(=O)(=O)CCc1ccc2[nH]cc(C3CCN(C)CC3)c2c1 [ONC0004816, naratriptan hcl] | 87.89 | – |
| O=C(O)CNC(=O)c1c(O)c2ccccc2n(Cc2ccccc2)c1=O [ONC0005126, iox2] | 78.07 | – |
| CC(=O)Oc1ccccc1C(=O)O [ONC0003312, aspirin] | 99.31 | – |
| O=C(NCc1cccc(O)c1)Nc1nc(-c2ccncc2)cs1 [ONC0002554, srpin340] | – | 81.94 |
| O=C(O)C(O)C(O)C(O)C(O)CO (stereo not shown) [ONC0005630, hexonicacid] | 64.98 | – |
| CC#C[C@@H](CC(=O)O)c1ccc(OCc2cccc(-c3ccc(C(F)(F)F)cc3)c2)cc1 [ONC0004239, amg 837 calcium hydrate] | 78.35 | – |
| O=C(O)c1ccc(-c2c[nH]c3ncc(-c4ccccc4)cc23)cc1C1CCCC1 [ONC0000050, gsk650394] | 89.55 | – |
| Cc1ncc(CO)c(CO)c1O [ONC0003956, pyridoxine hydrochloride] | 72.63 | – |
| CC(CCc1ccccc1)NC(C)C(O)c1ccc(O)cc1 (stereo not shown) [ONC0000526, nylidrin hydrochloride] | 89.82 | – |
| COc1cc2c3cc1Oc1cc(ccc1O)C[C@@H]1c4c(cc(OC)c(O)c4Oc4ccc(cc4)C[C@@H]3N(C)CC2)CC[N+]1(C)C [ONC0003196, tubocurarine chloride pentahydrate] | 147.6 | – |
| Nc1nccc(/C=C/c2ccccc2)n1 [ONC0001621, tcn238] | 73.65 | – |

| SMILES | % viability [%] | % viability (Madurella mycetomatis metabolic activity at 2µM (%)) [%] |
| --- | --- | --- |
| O=C1NC(=O)c2c1c1c3ccccc3[nH]c1c1[nH]c3ccccc3c21 [ONC0003629, arcyriaflavina] | 80.39 | – |
| OC(c1ccccc1)(c1ccccc1)C12CC[N+](CCOCc3ccccc3)(CC1)CC2 [ONC0000981, umeclidinium bromide] | 69.71 | – |
| COc1cc(C(=O)NCCCCCC(=O)O)cc(OC)c1OC [ONC0003945, capobenic acid] | 59.91 | – |
| N[C@@H](CCC(=O)N[C@@H](CS)C(=O)NCC(=O)O)C(=O)O [ONC0004053, glutathione] | 106.8 | – |
| CC1=C(C(=O)O)N2C(=O)[C@@H](NC(=O)[C@H](N)C3=CCC=CC3)[C@H]2SC1 [ONC0000905, cefradine] | 67.04 | – |
| C#Cc1cccc(Nc2ncnc3cc4c(cc23)OCCOCCOCCO4)c1 [ONC0004775, icotinib] | 65.11 | – |
| C=CC(=O)Nc1cc(Nc2nccc(-c3cn(C)c4ccccc34)n2)c(OC)cc1N(C)CCN(C)C [ONC0001076, osimertinib] | 66.38 | – |
| COc1cc(NC(=O)c2cccc(-n3cc(NC(=O)Nc4cccc(C)c4)cn3)c2)cc(OC)c1OC [ONC0004464, sr3576] | 114 | – |
| NC(=O)CNCCC(c1ccccc1)c1ccccc1 [ONC0000869, n20c] | 65.97 | – |
| Cc1ccc(NCCCc2ccccc2)c(N)c1 [ONC0004824, jsh23] | 98.24 | – |
| NC(=O)c1nc(Nc2ccccc2)sc1NC(=O)C1CCCCC1 [ONC0003128, unc3230] | 102.9 | – |
| O=[N+]([O-])c1cncn1CCN1CCOCC1 [ONC0001176, nimorazole] | 113.3 | – |
| C=CC(=O)Nc1cc(Nc2nccc(-c3c[nH]c4ccccc34)n2)c(OC)cc1N(C)CCN(C)C [ONC0005167, az5104] | 113.3 | – |
| O=C1NCN(c2ccccc2)C12CCN(CC1COc3ccccc3O1)CC2 (stereo not shown) [ONC0000435, spiroxatrine] | 63.33 | – |
| Cn1cc(-c2cnn3c(N)c(Br)c([C@@H]4CCCNC4)nc23)cn1 [ONC0004477, mk8776 sch 900776] | 129.9 | – |
| CN1C[C@H](C(=O)N[C@]2(C)O[C@@]3(O)[C@@H]4CCCN4C(=O)[C@H](Cc4ccccc4)N3C2=O)C[C@@H]2c3cccc4[nH]cc(c34)C[C@H]21 [ONC0001275, dihydroergotamine] | 111.9 | – |
| C=C1C[C@@]2(O)O[C@@]3(C[C@H]2C(C)C)[C@@H](C)CC[C@@H]13 [ONC0004732, curcumol] | 112 | – |
| C[C@]12CC[C@H](O)C[C@H]1CC[C@@H]1[C@@H]2CC[C@]2(C)[C@@](O)(c3ccoc3)CC[C@]12O [ONC0002466, rostafuroxin] | 69.84 | – |
| CCCCCCCCCCCCCCCC[n+]1ccn(Cc2ccccc2)c1C [ONC0000882, nh125] | 55.59 | – |
| C=CC(=O)Nc1cccc(Nc2nc(Nc3ccc(Oc4ccnc(C(=O)NC)c4)cc3)ncc2F)c1 [ONC0005138, cnx774] | 87.05 | – |
| CCCSc1nc(N[C@@H]2C[C@H]2c2ccc(F)c(F)c2)c2nnn([C@@H]3C[C@H](OCCO)[C@@H](O)[C@H]3O)c2n1 [ONC0004467, ticagrelor] | 113.4 | – |

| SMILES | % viability [%] | % viability (Madurella mycetomatis metabolic activity at 2µM (%)) [%] |
| --- | --- | --- |
| Oc1c(I)cc(I)cc1I [ONC0003717, am24] | 112.6 | – |
| N=C(N)c1ccc(/C=C/c2ccc(C(=N)N)cc2O)cc1 [ONC0003463, hydroxystilbamidine] | 43.6 | – |
| COc1ccc(-c2ccc3ncc4c(c3c2)n(-c2ccc(N3CCNCC3)c(C(F)(F)F)c2)c(=O)n4C)cn1 [ONC0004479, nvpbgt226] | 119.2 | – |
| O=C(Nc1ccc(C(O)(C(F)(F)F)C(F)(F)F)cc1)c1ccc(C(F)(F)F)cc1 [ONC0000412, sr1078] | 46.34 | – |
| COc1cccc(CCc2ccccc2OCC[C@@H]2C[C@@H](O)CN2C)c1 [ONC0001734, r96544] | 92.52 | – |
| CC(=O)O[C@]1(C(C)=O)CC[C@H]2[C@@H]3C=C(Cl)C4=CC(=O)[C@@H]5C[C@@H]5[C@]4(C)[C@H]3CC[C@@]21C [ONC0005384, cyproteroneacetate] | 126.3 | – |
| CC(C)c1cc(-c2n[nH]c(=O)n2-c2ccc3c(ccn3C)c2)c(O)cc1O [ONC0004686, ganetespib sta9090] | 103 | – |
| O=C(O)C1CCCN(CCC=C(c2ccccc2)c2ccccc2)C1 (stereo not shown) [ONC0000231, skf89976a] | 54.46 | – |
| O=C1c2ccccc2C(=O)C1c1ccc(Cl)cc1 [ONC0004251, chlorindione] | 77.21 | – |
| O=C(O)c1ccccn1 [ONC0003765, picolinicacid] | 105.8 | – |
| CN(C)CC(O)Cn1c2ccc(Br)cc2c2cc(Br)ccc21 (stereo not shown) [ONC0001876, wiskostatin] | 62.56 | – |
| CCCc1c2oc(C(=O)O)cc(=O)c2cc2c(=O)cc(C(=O)O)n(CC)c12 [ONC0000883, nedocromil] | 92.67 | – |
| Nc1nc(O)c2nc(Br)n([C@@H]3O[C@@H]4COP(=O)(O)O[C@H]4[C@H]3O)c2n1 [ONC0001556, 8bromocgmp] | 117.8 | – |
| N[C@H]1C[C@@H]1c1ccc(-c2cccc(O)c2)cc1 [ONC0004698, ogl002] | 135.7 | – |
| C#C[C@]1(OC(C)=O)CC[C@H]2[C@@H]3CCC4=CC(=NO)CC[C@@H]4[C@H]3CC[C@@]21CC (mixture of isomers) [ONC0004199, norgestimate] | 105 | – |
| COc1cc2c(cc1OC)[C@@H](Cc1cc(OC)c(OC)c(OC)c1)[N+](C)(CCCOC(=O)CC/C=C/CCC(=O)OCCC[N+]1(C)CCc3cc(OC)c(OC)cc3[C@H]1Cc1cc(OC)c(OC)c(OC)c1)CC2 (stereo partly shown) [ONC0003343, mivacurium chloride] | 67.68 | – |
| COc1cc(C(=O)N(CCC2CCCN2C)C/C(C)=C/c2ccccc2F)cc(OC)c1OC (stereo not shown) [ONC0000182, vuf11207 fumarate] | 91.37 | – |
| N#CSc1cc(SC#N)c(N)nc1N [ONC0004825, pr619] | 126.7 | – |
| CS(=O)(=O)c1ccc([C@@H](CC2CCCC2)C(=O)Nc2nccs2)cc1 [ONC0001248, ro 281675] | 68.47 | – |

Single values from the list.
% viability [%], `N[C@H]1C[C@@H]1c1ccc(-c2cccc(O)c2)cc1` [ONC0004698, ogl002] reads 135.7
% viability [%], `Nc1nc(O)c2nc(Br)n([C@@H]3O[C@@H]4COP(=O)(O)O[C@H]4[C@H]3O)c2n1` [ONC0001556, 8bromocgmp] reads 117.8
% viability [%], `O=C(Nc1ccc(C(O)(C(F)(F)F)C(F)(F)F)cc1)c1ccc(C(F)(F)F)cc1` [ONC0000412, sr1078] reads 46.34
